These results are taken from article PMC2909763 (Chemistry & biology, 2009).

In the assay the test system is acetylated histone H3 in FRDA lymphoblast cell line. In words: Histone H3 acetylation by western blot in FRDA lymphoblasts. It counts as cell-based, human. Conditions: increasing concentrations, western blotting.

Take `Cc1ccc(NC(=O)CCCCCC(=O)Nc2ccccc2N)cc1` [compound 106]: the “HDAC inhibition in FRDA cells (histone acetylation titration)” value is “comparably active”.
